In all, about 4,800 compounds went through this assay and fewer than 10 were called active. Only results without a clear call are listed here; the source files them as inconclusive. Calls follow the shape of the dose curve; as a rule, active = well fitted inhibition curve with a large enough effect; inconclusive = small, poorly fitted or top-dose-only effect; inactive = no such curve, though single readings can be large or run the other way.
What follows are compounds tested against Rap guanine nucleotide exchange factor 3 (Homo sapiens) (UniProt O95398) (assay: Counterscreen qHTS for antagonist of cAMP-regulated guanine nucleotide exchange factor 3 (EPAC1)). Settings: Rap1B-BODIPY-GDP nucleotide exchange, fluorescence.
Description: Assay Provider (PI): Xiaodong Cheng Ph.D. The University of Texas Medical Branch, Houston, TX MLPCN Grant: NS066510 In multi-cellular eukaryotic organisms, the effects of cAMP are transduced by two ubiquitously-expressed intracellular cAMP receptors, the classic protein kinase A/cAMP-dependent protein kinase (PKA/cAPK) and the more recently discovered exchange protein directly activated by cAMP/cAMP-regulated guanine nucleotide exchange factor (EPAC/cAMP-GEF). Both PKA and EPAC are ubiquitously expressed in all tissues, and an increase in intracellular cAMP levels will lead to the activation of both PKA and EPAC. […] This qHTS will be used to screen the Molecular Libraries Small Molecule Repository (MLSMR) as a concentration-titration series using the NCGC unique quantitative screening (qHTS) platform to find activators for EPAC1. […] Activators are identified by monitoring the change in fluorescence signal as the exchanged free BODIPY-GDP has a reduced fluorescence compared to Rap1-bound BODIPY-GDP. […]
EPAC1 Counterscreen PROTOCOL TABLE SEQUENCE No. (e.g., 1, 2, 3, etc.); […] […] Fluorescence. (Read 1), Ex/Em = 480 nm / 540 nm. […] Fluorescence. (Read 2), Ex/Em = 480 nm/ 540 nm. […] Fluorescence. (Read 3), Ex/Em = 480 nm / 540 nm. […] Fluorescence. (Read 4), Ex/Em = 480 nm / 540 nm. […]
Potency is read from the fitted curve at half-maximal effect.

SMILES	Potency
O=c1[nH]c2ccccc2n1C1CCN(C(c2ccccc2OC(F)(F)F)c2nnnn2C2CCCC2)CC1 (stereo unspecified)	inconclusive: 20 µM

Source: PubChem BioAssay AID1645888 (National Center for Advancing Translational Sciences (NCATS), 2021)
